From PubChem BioAssay AID1471 (National Center for Advancing Translational Sciences (NCATS), 2008)
In all, about 230,000 compounds went through this assay and about 310 (0.13%) were called active. This list was built around the results that the source calls inconclusive (neither active nor inactive); the mix of calls is not that of the screen. The call rests on the fitted dose curve; in most records, active means well fitted activation curve with a large enough effect; inconclusive means small, poorly fitted or top-dose-only effect; inactive means no such curve, though single readings can be large or run the other way. A potency beside an inconclusive call is a rough fit, not a confirmed value.

experiment: qHTS Multiplex Assay to Identify Dual Action Probes in a Cell Model of Huntington: Cytoprotection (ATP); settings: PC12 HTT-Q103 induced, ATP luminescence, 40 h; cytoprotection (ATP increase): at 56.4 µM (top of the series) unless noted; further: nearly all actives have a fitted effect of over 45% in size;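 on cytoprotection (ATP increase): toxic huntingtin expression switched on by the ecdysone agonist tebufenozide; % of control where 0% means no effect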
In short: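 PC12 cells with ecdysone-inducible HTT exon 1 Q103-GFP, induced with 100 nM tebufenozide and co-treated with library compounds in a dose series (1536-well, 1500 cells/well). Cytoprotection read as ATP content by ATPlite luminescence.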
Potency means the concentration at half of the fitted maximal effect.

SMILES | Potency | cytoprotection (ATP increase)
COCCn1c(=O)c(C)nc2cncnc21 | inconclusive: 0.631 µM [activator, partial curve, poor fit] | 
Cc1[nH]c2ccccc2c1/C=N/NC(=O)CNC(=O)COc1ccccc1 | inactive | 
Cc1ccc(C(=O)C(C(=O)/C=C/c2ccccc2)=C2SCCCS2)cc1 | inconclusive: 3.55 µM [activator, single point] | 
CCOC(=O)c1cnc2c(cnn2CC)c1NN=C(C)C | inconclusive: 35.5 µM [activator, single point] | 
Cc1ccc(-n2ncc(Br)c(Br)c2=O)cc1 |  | inactive: -97.3% [at 10 µM]
Cc1ccc(C)c(NC(=S)Nc2cccc3cnccc23)c1 | inconclusive: 0.0071 µM [activator, full curve, poor fit] | 
S=C(Nc1ccccc1)Nn1cnnc1 | inconclusive: 1.26 µM [activator, single point] | 
CC(C)N(C(=O)Cn1cnc2cc([N+](=O)[O-])ccc2c1=O)C(C)C | inconclusive: 22.4 µM [activator, single point] | 
CC(=O)N1N=C(c2ccccc2)CC1c1cn(Cc2ccccc2)c2ccccc12 (centres undefined) |  | inactive: -11.5% [at 10 µM]
Cn1c(=O)n(C)c2cc([N+](=O)[O-])c(N3CCN(C(=O)c4ccc(Cl)cc4)CC3)cc21 | inconclusive: 6.31 µM [activator, single point] | 
c1ccc(COn2c(-c3ccccc3)nc3c2CCc2nonc2-3)cc1 | inactive | 
Nc1ncnc2c1ncn2C1OC(COP(=O)(O)O)C(O)C1O (centres undefined) | inconclusive: 0.316 µM [activator, full curve, poor fit] | 
Cc1nn(-c2nc3ccccc3[nH]2)c(N)c1-c1ccc(Cl)cc1 | inconclusive: 0.631 µM [activator, partial curve] | 
CCc1cc(C(=O)c2ccc(C)cc2)c(NC(=O)CCl)s1 |  | inactive: 3.11% [at 10 µM]
Cc1ccccc1C1c2[nH]c3ccccc3c2CCN1C(=O)c1ccc(=O)n(C)n1 (centres undefined) | inactive | 
COc1cc(/C=N/NC(=O)c2cc(-c3cccn3C)n[nH]2)cc(OC)c1OC | inconclusive: 12.6 µM [activator, single point] | 
C[C@@H](c1ccccc1)N1C(=O)[C@H]2[C@@H]3[C@H](O)C=CC(=O)[C@H]3CC[C@H]2C1=O | inconclusive: 5.62 µM [activator, single point] | 
O=C(CSC1=NCCS1)Nc1nc2ccccc2s1 | inconclusive: 0.562 µM [activator, single point] | 
Cc1cccc(C)c1NC(=O)CSCC(=O)O | inactive | 
FC(F)(F)c1cnc(Oc2ccc(-c3nnco3)cc2)c(Cl)c1 |  | inactive: 7.84% [at 10 µM]
CCOC(=O)c1ccc(Nc2ncccc2[N+](=O)[O-])cc1 | inconclusive: 3.55 µM [activator, single point] | 
COc1cc(C)c(/C=C(\C#N)C(=O)Nc2cccc(C)c2)cc1C(C)C | inconclusive: 0.562 µM [activator, single point] | 

SMILES | Potency | cytoprotection (ATP increase)
COc1ccc(NCc2ccc(OC)c(OC)c2)cc1 | inactive | 
NC(=S)N/N=C\c1ccc(-c2cccc(Cl)c2Cl)o1 | inconclusive: 2.51 µM [activator, partial curve] | 
COc1ccc(C(=O)NCc2ccccc2)cc1Br |  | inactive: -4.6% [at 10 µM]
CCc1cccc(CC)c1NC(=O)CN(CC(=O)O)CC(=O)O | inconclusive: 0.251 µM [activator, full curve] | 
CN(C)CCCN(CCCN(C)C)C(=S)Nc1ccc(S(=O)(=O)N2CCOCC2)cc1 |  | inactive: 6.06% [at 10 µM]
COc1ccc(S(=O)(=O)N(C(=O)C(C)C)c2ccc3oc(=O)sc3c2)cc1 | inconclusive: 3.98 µM [activator, single point] | 
COc1ccc(-c2cnc3nc(/N=C/N(C)C)nn3c2/N=C/N(C)C)cc1 |  | inactive: 9.25% [at 10 µM]
C/C(C/C(C)=C1/SC(=S)NC1=O)=C1\SC(=S)NC1=O | inconclusive: 22.4 µM [activator, single point] | 
COc1ccc(C(C)=O)cc1CN1C(=O)NC2(CCCCCCC2)C1=O | inactive | 
COC(=O)[C@@]1(Cc2ccc(F)cc2)[C@H]2c3cc(C(=O)N4CCCC4)n(CCc4c[nH]c5ccc(OC)cc45)c3C[C@H]2CN1C(=O)c1ccccc1 | inconclusive: 31.6 µM [activator, single point] | 
Cc1nn(C)c(C)c1CN(C)S(=O)(=O)c1ccc2ccccc2c1 | inconclusive: 3.55 µM [activator, single point] | 
O=S(=O)(c1ccccc1)N1CCC[C@@]2(CCN(c3ccncc3)C2)C1 | inconclusive: 1.26 µM [activator, full curve] | 
CCOC(=O)C1(CC)NC(c2cccc(F)c2)C2C(=O)N(CC)C(=O)C21 (centres undefined) |  | inactive: 18.7% [at 1.9 µM]
O=C(CSC1=NCCS1)NC(NC(=O)CSC1=NCCS1)c1ccccc1 | inconclusive: 7.08 µM [activator, partial curve] | 
C/C(=N/NC(=O)c1cccs1)c1cccs1 |  | inactive: -11.8% [at 10 µM]
N#Cc1cccc(-c2nc3cnc(Oc4cccc(Cl)c4)nc3n(C3CC3)c2=O)c1 | inconclusive: 20 µM [activator, partial curve] | 
COCCN(CC(=O)NC1CCCCC1)C(=O)/C=C/C(=O)c1ccc(OC)cc1O | inconclusive: 5.01 µM [activator, single point] | 
O=C(NCc1cccs1)C1CCC(=O)N1C1CCCCC1 (centres undefined) | inactive | 
NC(=O)CSc1ncnc2c1nnn2Cc1ccc(F)cc1 | inconclusive: 11.2 µM [activator, partial curve] | 
CCOc1cc(/C=N\Nc2nc(Nc3ccccc3)nc(N3CCOCC3)n2)ccc1OC(=O)c1ccco1 | inconclusive: 6.31 µM [activator, partial curve, poor fit] | 
COc1cc(/C=N\NC(=O)c2ccc(=O)[nH]n2)cc(OC)c1OC | inconclusive: 4.47 µM [activator, partial curve] | 
O=C(Nc1nnc(-c2ccccc2Cl)o1)c1ccc(S(=O)(=O)N2CCCCCC2)cc1 | inactive | 

Nine of the compounds above, tab-delimited:
SMILES	Potency	cytoprotection (ATP increase)
COc1ccc(-c2cnc3nc(/N=C/N(C)C)nn3c2/N=C/N(C)C)cc1		inactive: 9.25% [at 10 µM]
C/C(C/C(C)=C1/SC(=S)NC1=O)=C1\SC(=S)NC1=O	inconclusive: 22.4 µM [activator, single point]	
COc1ccc(C(C)=O)cc1CN1C(=O)NC2(CCCCCCC2)C1=O	inactive	
COC(=O)[C@@]1(Cc2ccc(F)cc2)[C@H]2c3cc(C(=O)N4CCCC4)n(CCc4c[nH]c5ccc(OC)cc45)c3C[C@H]2CN1C(=O)c1ccccc1	inconclusive: 31.6 µM [activator, single point]	
Cc1nn(C)c(C)c1CN(C)S(=O)(=O)c1ccc2ccccc2c1	inconclusive: 3.55 µM [activator, single point]	
O=S(=O)(c1ccccc1)N1CCC[C@@]2(CCN(c3ccncc3)C2)C1	inconclusive: 1.26 µM [activator, full curve]	
CCOC(=O)C1(CC)NC(c2cccc(F)c2)C2C(=O)N(CC)C(=O)C21 (centres undefined)		inactive: 18.7% [at 1.9 µM]
O=C(CSC1=NCCS1)NC(NC(=O)CSC1=NCCS1)c1ccccc1	inconclusive: 7.08 µM [activator, partial curve]	
C/C(=N/NC(=O)c1cccs1)c1cccs1		inactive: -11.8% [at 10 µM]
